Reference: patent US20140170142A1 (AstraZeneca / MedImmune, published 2014)
No constants are given. Whether binding was seen depends on the method and setting. Some binding calls cover weakened binding; strength is not graded here. Sequences can lack the tags named with a protein.

Molecular target: T1, mouse FcRn (mouse, UniProt Q61559 22-297; P01887 21-119, limits assumed)
T1 construct: also called mFcRn
T1 sequence (looked up): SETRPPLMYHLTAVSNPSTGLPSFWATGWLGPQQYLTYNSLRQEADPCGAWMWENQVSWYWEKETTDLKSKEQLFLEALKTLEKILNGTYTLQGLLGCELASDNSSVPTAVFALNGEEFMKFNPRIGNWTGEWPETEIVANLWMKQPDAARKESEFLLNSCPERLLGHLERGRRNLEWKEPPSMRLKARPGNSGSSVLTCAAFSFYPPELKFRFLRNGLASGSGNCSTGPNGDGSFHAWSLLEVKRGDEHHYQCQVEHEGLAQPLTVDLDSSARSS
T1 sequence (b2m, looked up): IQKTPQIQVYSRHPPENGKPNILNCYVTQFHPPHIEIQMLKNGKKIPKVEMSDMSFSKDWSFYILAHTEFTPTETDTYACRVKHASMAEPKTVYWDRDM
Experiment: SPR (BIAcore 3000), CM5 chip, pH 6.0

B1: ABD-TM-Fc: triple knockout mutations of ABD residues S18A; T20A and Y21A (Fc fusion)
chain: LAEAKVLANRELDKYGVADAYANLINNAKTVEGVKALIDEILAALPGAEPRGPTIKPCPPCKCPAPNLLGGPSVFIFPPKIKDVLMISLSPIVTCVVVDVSEDDPDVQISWFVNNVEVHTAQTQTHREDYNSTLRVVSALPIQHQDWMSGKEFKCKVNNKDLPAPIERTISKPKGSVRAPQVYVLPPPEEEMTKKQVTLTCMVTDFMPEDIYVEWTNNGKTELNYKNTEPVLDSDGSYFMYSKLRVEKKNWVERNSYSCSVVHEGLHNHHTTKSFSRTPGKGGGGSEQKLISEEDLGGGGSHHHHHH
notes: T20A/Y20A; Y21A)
binding: binds
